The list shows a part of the results.

For this assay, the target named is T1, OsSMF1 (Oryza sativa, UniProt Q6ZLB0 1-436).
T1 sequence: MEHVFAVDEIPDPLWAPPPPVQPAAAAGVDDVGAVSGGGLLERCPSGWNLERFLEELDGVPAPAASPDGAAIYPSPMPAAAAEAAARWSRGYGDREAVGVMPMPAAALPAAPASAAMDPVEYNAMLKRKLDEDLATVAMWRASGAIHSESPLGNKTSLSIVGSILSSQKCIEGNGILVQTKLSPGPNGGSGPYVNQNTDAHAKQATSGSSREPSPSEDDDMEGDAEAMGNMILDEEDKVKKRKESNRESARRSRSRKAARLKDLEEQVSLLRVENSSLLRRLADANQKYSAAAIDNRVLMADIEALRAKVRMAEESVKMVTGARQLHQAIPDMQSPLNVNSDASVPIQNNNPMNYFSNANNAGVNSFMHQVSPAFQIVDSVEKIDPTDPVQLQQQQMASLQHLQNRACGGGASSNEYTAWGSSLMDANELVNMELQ
Nature of the assay: protein-binding microarray (RPBM); PBS, 2% BSA, 51.3 ng/ul salmon testes DNA, 50 uM zinc acetate, 200 nM TF, 25 C, 1 h; high values mean tight binding. The conditions noted are these: protein: recombinant; tags: N-terminal polyhistidine and DsRed monomer fusion (pET32a); chain copies: 2; label: CyDye5-dUTP incorporated in the synthesized complementary strand; 3' TTTTT single-stranded linker to array surface; dsDNA, one strand shown. An outline of the steps:
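A custom Agilent array was converted to double-stranded form by primer extension with Cy5-dUTP and blocked with 2% BSA. Protein at 200 nM in PBS with 2% BSA, salmon testes DNA and 50 µM zinc acetate was applied for 1 h at 25 °C, followed by washing. The proteins were polyhistidine–DsRed N-terminal fusions of transcription factors, expressed in E. coli BL21-CodonPlus and Ni–NTA-purified. The binding signal is per-feature fluorescence intensity (arbitrary units) from an Axon 4000B scanner.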
In the case of “GGCTAGCGTACAGGTTAAAACGTGTCGGAATCGTCAGCGCCGGAGTCACCTAGTGCAG”, the binding signal was 4110 fluorescence intensity (a.u.). The figure for “GGCCCCACCTGCAGCGACTGTTAGTCCAACGTGGCACTATCGGAGTCACCTAGTGCAG” is 11600 fluorescence intensity (a.u.); for “AAGAGGAAGATAGTAGGTGGTCTCCATCAGTTTGACTTGGCGGAGTCACCTAGTGCAG” it is 4130 fluorescence intensity (a.u.); for “TCTCCCCAATTTTAGAAACTAAACACAGCCTACGTCATATCGGAGTCACCTAGTGCAG” it is 6630 fluorescence intensity (a.u.). Then “TCAGAGTAGAGCGGCCAGCACAGCATTGGCACACCCGCGGCGGAGTCACCTAGTGCAG”, with 3720 fluorescence intensity (a.u.). The figure for “GCTGTACAACATCCCTAGTCAGCATTTATTATTTCCAGTGCGGAGTCACCTAGTGCAG” is 5180 fluorescence intensity (a.u.); for “ATCGCGCGGATGCTTGTCGTGTCGGCGAGGAAGTGGGGTGCGGAGTCACCTAGTGCAG” it is 3800 fluorescence intensity (a.u.).

For “CCAAAATTAGCTTCGGTCGGTACAAACACCAGAATTCAGCCGGAGTCACCTAGTGCAG”, the binding signal was 3220 fluorescence intensity (a.u.). For the sequence “GCTAGCTAAGAGCGAGCTTCATTAACATACGAGACAGAGACGGAGTCACCTAGTGCAG”, the binding signal is 4530 fluorescence intensity (a.u.). The figure for “GCAAGCAAAGAAAGTTGTCATCATCCCAATCCTCCTCCGCCGGAGTCACCTAGTGCAG” is 4050 fluorescence intensity (a.u.); for “CCATGTATATATTGGAGCGGGGTGGCGGTGTAGATCAATGCGGAGTCACCTAGTGCAG” it is 3700 fluorescence intensity (a.u.). Then “GACAAGCGTGGTGAAGTGGTGGGGAGTTGCGGGAGGGAGGCGGAGTCACCTAGTGCAG”, with 3630 fluorescence intensity (a.u.); and “GATACACAAAGCTACCTAAGGACCTTGTGCGTGACGAGGACGGAGTCACCTAGTGCAG”, with 4470 fluorescence intensity (a.u.); and “TCTCGGCCCGCCGCCGCCTCCTCCGCTCGAGCCGCACCGCCGGAGTCACCTAGTGCAG”, with 24500 fluorescence intensity (a.u.). Take “TGCTGCCAGTGACTAATGATAATCTGTCTGCAATTGAGACCGGAGTCACCTAGTGCAG”: the binding signal is 4640 fluorescence intensity (a.u.). The figure for “GACTGAAGTTTGGATTCAAATTTTGGATCTAGACACAGCCCGGAGTCACCTAGTGCAG” is 3210 fluorescence intensity (a.u.); for “GCGACGCCACATTCACGGTAATAAGGTGGTAACACGCGTACGGAGTCACCTAGTGCAG” it is 3560 fluorescence intensity (a.u.); for “GCCTCGAGCGTTTATTGCGTGAATGCTCTTTCTGTTGCTGCGGAGTCACCTAGTGCAG” it is 3400 fluorescence intensity (a.u.). The figure for “ATCAAAATGAAAACTCAGGGGTATATAAGGGATGATGTCACGGAGTCACCTAGTGCAG” is 3380 fluorescence intensity (a.u.). Then “TGTGGTGTTGTATATTTTCCGTGTAACAGGGAAAATCATTCGGAGTCACCTAGTGCAG”, with 3470 fluorescence intensity (a.u.); and “CTCTTCTCCACCTCAACATTTAGCCGGCTTATAGCTACTACGGAGTCACCTAGTGCAG”, with 3960 fluorescence intensity (a.u.). For the sequence “GCAACCGCGACGACCGATCCACGTGGCACCACCTCATTGGCGGAGTCACCTAGTGCAG”, the binding signal is 29400 fluorescence intensity (a.u.). As for “ATTGTTTTGTCACACGAATAAGGATTATCTCGTTACATGTCGGAGTCACCTAGTGCAG”, the binding signal was 3280 fluorescence intensity (a.u.).

The values above are taken from paper PMC7819943, “Rice protein-binding microarrays: a tool to detect cis-acting elements near promoter regions in rice”.
